Experimental data taken from the supplement of paper PMC8728848.
The other results are listed elsewhere or left out.

What was measured:
Assay in all cases: glycan array binding signal (z-score within array); higher = stronger binding
Settings in all cases: glycan notation: IUPAC condensed, linker removed
[1] = molecular target: Neu5Ac(a2-3)Gal(b1-3)GalNAc
Summary of the method: (§1)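 Glycan array binding is given as a within-array Z-score, which can be read as non-binding when negative. The arrays, 3228 of them, came from the Consortium for Functional Glycomics database and were retained only where the protein sequence was available. Z-scores were averaged across arrays of the same protein sequence at different concentrations or buffers and across linkers.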

[2] = molecular target: Neu5Ac(a2-3)Gal(b1-3)GalNAc(b1-3)Gal(a1-4)Gal(b1-4)Glc
Summary of the method: as §1

[3] = molecular target: Neu5Ac(a2-3)Gal(b1-3)GalNAc(b1-4)Gal(b1-4)Glc
Summary of the method: as §1

[4] = molecular target: Neu5Ac(a2-3)Gal(b1-3)GalNAc(b1-4)[Neu5Ac(a2-3)]Gal(b1-4)Glc
Summary of the method: as §1

[5] = molecular target: Neu5Ac(a2-3)Gal(b1-3)GalNAc(b1-4)[Neu5Ac(a2-8)Neu5Ac(a2-3)]Gal(b1-4)Glc
Summary of the method: as §1

[6] = molecular target: Neu5Ac(a2-3)Gal(b1-3)GalNAc6S
Summary of the method: as §1

[7] = molecular target: Neu5Ac(a2-3)Gal(b1-3)GlcNAc
Summary of the method: as §1

[8] = molecular target: Neu5Ac(a2-3)Gal(b1-3)GlcNAc(b1-2)Man
Summary of the method: as §1

[9] = molecular target: Neu5Ac(a2-3)Gal(b1-3)GlcNAc(b1-2)Man(a1-3)[GlcNAc(b1-4)][Neu5Ac(a2-3)Gal(b1-3)GlcNAc(b1-2)Man(a1-6)]Man(b1-4)GlcNAc(b1-4)GlcNAc
Summary of the method: as §1

[10] = molecular target: Neu5Ac(a2-3)Gal(b1-3)GlcNAc(b1-2)Man(a1-3)[Neu5Ac(a2-3)Gal(b1-3)GlcNAc(b1-2)Man(a1-6)]Man(b1-4)GlcNAc(b1-4)GlcNAc
Summary of the method: as §1

[11] = molecular target: Neu5Ac(a2-3)Gal(b1-3)GlcNAc(b1-2)[Neu5Ac(a2-3)Gal(b1-3)GlcNAc(b1-4)]Man(a1-6)[Neu5Ac(a2-3)Gal(b1-3)GlcNAc(b1-2)Man(a1-3)]Man(b1-4)GlcNAc(b1-4)GlcNAc
Summary of the method: as §1

[12] = molecular target: Neu5Ac(a2-3)Gal(b1-3)GlcNAc(b1-3)Gal(b1-3)GlcNAc
Summary of the method: as §1

[13] = molecular target: Neu5Ac(a2-3)Gal(b1-3)GlcNAc(b1-3)Gal(b1-4)GlcNAc
Summary of the method: as §1

[14] = molecular target: Neu5Ac(a2-3)Gal(b1-3)GlcNAc(b1-3)GalNAc
Summary of the method: as §1

[15] = molecular target: Neu5Ac(a2-3)Gal(b1-3)GlcNAc(b1-6)GalNAc
Summary of the method: as §1

[16] = molecular target: Neu5Ac(a2-3)Gal(b1-3)GlcNAc6S
Summary of the method: as §1

[17] = molecular target: Neu5Ac(a2-3)Gal(b1-3)[Fuc(a1-4)]GlcNAc
Summary of the method: as §1

[18] = molecular target: Neu5Ac(a2-3)Gal(b1-3)[Fuc(a1-4)]GlcNAc(b1-3)Gal(b1-3)[Fuc(a1-4)]GlcNAc
Summary of the method: as §1

[19] = molecular target: Neu5Ac(a2-3)Gal(b1-3)[Fuc(a1-4)]GlcNAc(b1-3)Gal(b1-4)[Fuc(a1-3)]GlcNAc
Summary of the method: as §1

[20] = molecular target: Neu5Ac(a2-3)Gal(b1-3)[GlcNAc(b1-6)]GalNAc
Summary of the method: as §1

[21] = molecular target: Neu5Ac(a2-3)Gal(b1-3)[Neu5Ac(a2-6)]GalNAc
Summary of the method: as §1

[22] = molecular target: Neu5Ac(a2-3)Gal(b1-3)[Neu5Ac(a2-6)]GlcNAc(b1-3)[Fuc(a1-3)[Gal(b1-4)]GlcNAc(b1-6)]Gal(b1-4)Glc
Summary of the method: as §1

[23] = molecular target: Neu5Ac(a2-3)Gal(b1-3)]Neu5Ac(a2-3)Gal(b1-4)]GlcNAc
Summary of the method: as §1

Neu5Ac(a2-3)Gal(b1-4)Glc = molecular target: Neu5Ac(a2-3)Gal(b1-4)Glc
Summary of the method: as §1

[24] = molecular target: Neu5Ac(a2-3)Gal(b1-4)GlcNAc
Summary of the method: as §1

[25] = molecular target: Neu5Ac(a2-3)Gal(b1-4)GlcNAc(b1-2)Man
Summary of the method: as §1

[26] = molecular target: Neu5Ac(a2-3)Gal(b1-4)GlcNAc(b1-2)Man(a1-3)[GlcNAc(b1-4)][Neu5Ac(a2-3)Gal(b1-4)GlcNAc(b1-2)Man(a1-6)]Man(b1-4)GlcNAc(b1-4)GlcNAc
Summary of the method: as §1

[27] = molecular target: Neu5Ac(a2-3)Gal(b1-4)GlcNAc(b1-2)Man(a1-3)[Neu5Ac(a2-3)Gal(b1-4)GlcNAc(b1-2)Man(a1-6)]Man(b1-4)GlcNAc(b1-4)GlcNAc
Summary of the method: as §1

[28] = molecular target: Neu5Ac(a2-3)Gal(b1-4)GlcNAc(b1-2)Man(a1-3)[Neu5Ac(a2-3)Gal(b1-4)GlcNAc(b1-2)Man(a1-6)]Man(b1-4)GlcNAc(b1-4)[Fuc(a1-6)]GlcNAc
Summary of the method: as §1

[29] = molecular target: Neu5Ac(a2-3)Gal(b1-4)GlcNAc(b1-2)Man(a1-3)[Neu5Ac(a2-6)Gal(b1-4)GlcNAc(b1-2)Man(a1-6)]Man(b1-4)GlcNAc(b1-4)GlcNAc
Summary of the method: as §1

[30] = molecular target: Neu5Ac(a2-3)Gal(b1-4)GlcNAc(b1-2)[Neu5Ac(a2-3)Gal(b1-4)GlcNAc(b1-4)]Man(a1-3)[GlcNAc(b1-4)][Neu5Ac(a2-3)Gal(b1-4)GlcNAc(b1-2)[Neu5Ac(a2-3)Gal(b1-4)GlcNAc(b1-6)]Man(a1-6)]Man(b1-4)GlcNAc(b1-4)GlcNAc
Summary of the method: as §1

[31] = molecular target: Neu5Ac(a2-3)Gal(b1-4)GlcNAc(b1-2)[Neu5Ac(a2-3)Gal(b1-4)GlcNAc(b1-4)]Man(a1-3)[GlcNAc(b1-4)][Neu5Ac(a2-3)Gal(b1-4)GlcNAc(b1-4)Man(a1-6)]Man(b1-4)GlcNAc(b1-4)GlcNAc
Summary of the method: as §1

[32] = molecular target: Neu5Ac(a2-3)Gal(b1-4)GlcNAc(b1-2)[Neu5Ac(a2-3)Gal(b1-4)GlcNAc(b1-6)]Man(a1-6)[Neu5Ac(a2-3)Gal(b1-4)GlcNAc(b1-2)Man(a1-3)][GlcNAc(b1-4)]Man(b1-4)GlcNAc(b1-4)GlcNAc
Summary of the method: as §1

[33] = molecular target: Neu5Ac(a2-3)Gal(b1-4)GlcNAc(b1-3)Gal
Summary of the method: as §1

[34] = molecular target: Neu5Ac(a2-3)Gal(b1-4)GlcNAc(b1-3)Gal(b1-3)GlcNAc
Summary of the method: as §1

[35] = molecular target: Neu5Ac(a2-3)Gal(b1-4)GlcNAc(b1-3)Gal(b1-4)GlcNAc
Summary of the method: as §1

[36] = molecular target: Neu5Ac(a2-3)Gal(b1-4)GlcNAc(b1-3)Gal(b1-4)GlcNAc(b1-2)Man(a1-3)[Neu5Ac(a2-3)Gal(b1-4)GlcNAc(b1-3)Gal(b1-4)GlcNAc(b1-2)Man(a1-6)]Man(b1-4)GlcNAc(b1-4)GlcNAc
Summary of the method: as §1

[37] = molecular target: Neu5Ac(a2-3)Gal(b1-4)GlcNAc(b1-3)Gal(b1-4)GlcNAc(b1-3)Gal(b1-4)GlcNAc
Summary of the method: as §1

[38] = molecular target: Neu5Ac(a2-3)Gal(b1-4)GlcNAc(b1-3)Gal(b1-4)GlcNAc(b1-3)Gal(b1-4)GlcNAc(b1-2)Man(a1-3)[Neu5Ac(a2-3)Gal(b1-4)GlcNAc(b1-3)Gal(b1-4)GlcNAc(b1-3)Gal(b1-4)GlcNAc(b1-2)Man(a1-6)]GalNAc
Summary of the method: as §1

[39] = molecular target: Neu5Ac(a2-3)Gal(b1-4)GlcNAc(b1-3)Gal(b1-4)GlcNAc(b1-3)GalNAc
Summary of the method: as §1

[40] = molecular target: Neu5Ac(a2-3)Gal(b1-4)GlcNAc(b1-3)Gal(b1-4)GlcNAc(b1-3)[Neu5Ac(a2-3)Gal(b1-4)GlcNAc(b1-3)Gal(b1-4)GlcNAc(b1-6)]GalNAc
Summary of the method: as §1

[41] = molecular target: Neu5Ac(a2-3)Gal(b1-4)GlcNAc(b1-3)Gal(b1-4)GlcNAc(b1-6)[Gal(b1-3)]GalNAc
Summary of the method: as §1

[42] = molecular target: Neu5Ac(a2-3)Gal(b1-4)GlcNAc(b1-3)Gal(b1-4)[Fuc(a1-3)]GlcNAc
Summary of the method: as §1

[43] = molecular target: Neu5Ac(a2-3)Gal(b1-4)GlcNAc(b1-3)GalNAc
Summary of the method: as §1

[44] = molecular target: Neu5Ac(a2-3)Gal(b1-4)GlcNAc(b1-3)[Neu5Ac(a2-3)Gal(b1-4)GlcNAc(b1-6)]GalNAc
Summary of the method: as §1

B1: Loc1 (Escherichia coli) (protein)
chain: APCALTNVGEQRGTYILKPLSMKGNLTAEKIENTGNIIECTDLQETTNAIKVHFLTQNALKFKVGSRHYIINFPFEYDGKKIELPGKSSYNLEEMLSAINFTIPYSIASVSDSSNTADIFPGTPFPLLFEIEVSSCTGNNTNCNSVRFNYNLNTILQVNLMTHHHHHH
glycan array binding signal (z-score) [1]: -0.478
glycan array binding signal (z-score) [2]: -0.398
glycan array binding signal (z-score) [3]: -0.149
glycan array binding signal (z-score) [4]: -0.357
glycan array binding signal (z-score) [5]: -0.945
glycan array binding signal (z-score) [6]: -0.388
glycan array binding signal (z-score) [7]: -0.838
glycan array binding signal (z-score) [8]: -0.478
glycan array binding signal (z-score) [9]: -0.595
glycan array binding signal (z-score) [10]: 0.212
glycan array binding signal (z-score) [11]: 0.502
glycan array binding signal (z-score) [12]: -0.471
glycan array binding signal (z-score) [13]: -0.29
glycan array binding signal (z-score) [14]: -0.063
glycan array binding signal (z-score) [15]: 0.181
glycan array binding signal (z-score) [16]: -0.26
glycan array binding signal (z-score) [17]: 0.062
glycan array binding signal (z-score) [18]: 0.472
glycan array binding signal (z-score) [19]: -1.46
glycan array binding signal (z-score) [20]: -0.26
glycan array binding signal (z-score) [21]: -0.234
glycan array binding signal (z-score) [22]: 0.125
glycan array binding signal (z-score) [23]: -0.521
glycan array binding signal (z-score) (Neu5Ac(a2-3)Gal(b1-4)Glc): -0.786
glycan array binding signal (z-score) [24]: -0.967
glycan array binding signal (z-score) [25]: 0.657
glycan array binding signal (z-score) [26]: 0.255
glycan array binding signal (z-score) [27]: -0.611
glycan array binding signal (z-score) [28]: -0.578
glycan array binding signal (z-score) [29]: -0.166
glycan array binding signal (z-score) [30]: 0.298
glycan array binding signal (z-score) [31]: -0.745
glycan array binding signal (z-score) [32]: -0.322
glycan array binding signal (z-score) [33]: -0.004
glycan array binding signal (z-score) [34]: -0.763
glycan array binding signal (z-score) [35]: 0.155
glycan array binding signal (z-score) [36]: 0.087
glycan array binding signal (z-score) [37]: -0.064
glycan array binding signal (z-score) [38]: 2.75
glycan array binding signal (z-score) [39]: -0.089
glycan array binding signal (z-score) [40]: -0.543
glycan array binding signal (z-score) [41]: 0.747
glycan array binding signal (z-score) [42]: 0.62
glycan array binding signal (z-score) [43]: -0.098
glycan array binding signal (z-score) [44]: -0.884
